# No constants are given. Whether binding was seen depends on the method and setting. Binding calls can cover weak binding; strength is not graded here. Tags and fused reporters may be left off the sequences shown.
# Sequences of proteins named here, by UniProt entry; tags and fusion partners are left off. A change or cut given only in a name is not applied to a line headed by its entry.
# UniProt P10451: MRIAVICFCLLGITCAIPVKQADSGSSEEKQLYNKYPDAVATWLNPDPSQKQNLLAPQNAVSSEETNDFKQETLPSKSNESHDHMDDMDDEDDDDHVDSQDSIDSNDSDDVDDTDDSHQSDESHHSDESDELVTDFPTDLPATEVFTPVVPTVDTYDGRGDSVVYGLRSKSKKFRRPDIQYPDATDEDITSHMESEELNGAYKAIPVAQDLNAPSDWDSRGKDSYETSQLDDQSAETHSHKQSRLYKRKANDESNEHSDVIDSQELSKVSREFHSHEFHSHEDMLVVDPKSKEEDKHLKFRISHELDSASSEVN
# B1: 1-2-1 mutant (alternative splicing variant of human integrin α4) with C-terminal FLAG tag, secreted into COS1 culture supernatant (receptor, not shown: small tags and cut ends)
# chain: YNVDTESALLYQGPHNTLFGYSVVLHSHGANRWLLVGAPTANWLANASVINPGAIYRCRIGKNPGQTCEQLQLGSPNGEPCGKTCLEERDNQWLGVTLSRQPGENGSIVTCGHRWKNIFYIKNENKLPTGGCYGVPPDLRTELSKRIAPCYQGSISKYRART
# B2: 1-1-2 mutant (alternative splicing variant of human integrin α4) with C-terminal FLAG tag, secreted into COS1 culture supernatant (receptor, not shown: small tags and cut ends)
# chain: YNVDTESALLYQGPHNTLFGYSVVLHSHGANRWLLVGAPTANWLANASVINPGAIYRCRIGKNPGQTCEQLQLGSPNGEPCGKTCLEERDNQWLGVTLSRQPGENGSIVTCGHRWKNIFYIKNENKLPTGGCYGVPPDLRTELSKRIAPCYQDYVKKFGENFASCQAGISSFYTKDLIVMGAPGSSYWTGSLFVYNITTNKYKAFLDKQNQVKFGSYLGYSVGAGHFRSQHTTEVVGGAPQHEQIGKAYIFSIDEKELNILHEMKGKKLGSYFGASVCAVDLNADGFSDLLVGAPMQSTIREEGRVFVYINSGSGAVMNAMETNLVGSDKYAARFGESIVNLGDIDNDGFEGN
# B3: 7-3-2 mutant (alternative splicing variant of human integrin α4) with C-terminal FLAG tag, secreted into COS1 culture supernatant (receptor, not shown: small tags and cut ends)
# chain: YNVDTESALLYQGPHNTLFGYSVVLHSHGANRWLLVGAPTANWLANASVINPGAIYRCRIGKNPGQTCEQLQLGSPNGEPCGKTCLEERDNQWLGVTLSRQPGENGSIVTCGHRWKNIFYIKNENKLPTGGCYGVPPDLRTELSKRIAPCYQDYVKKFGENFASCQAGISSFYTKDLIVMGAPGSSYWTGSLFVYNITTNKYKAFLDKQNQVKFGSYLGYSVGAGHFRSQHTTEVVGGAPQHEQIGKAYIFSIDEKELNILHEMKGKKLGSYFGASVCAVDLNADGFSDLLVGAPMQSTIREEGRVFVYINSGSGAVMNAMETNLVGSDKYAARFGESIVNLGDIDNDGFEDVAIGAPQEDDLQGAIYIYNGRADGISSTFSQRIEGLQISKSLSMFGQSISGQIDADNNGYVDVAVGAFRSDSAVLLRTRPVVIVDASLSHPESVNRTKFDCVENGWPSVCIDLTLCFSYKGKEVPGYIGGYALQY
# Biological target: human OPN RAA Nhalf protein (human) (UniProt P10451)
# Experiment: ligand solid phase ELISA: OPN RAA Nhalf immobilised, COS1 supernatant, anti-FLAG detection
row,binding,Molecule
1,binds,"10-7-3 mutant (alternative splicing variant of human integrin α4) with C-terminal FLAG tag, secreted into COS1 culture supernatant (from UniProt P13612 34-640) (receptor)"
2,binds,"10-7-2 mutant (alternative splicing variant of human integrin α4) with C-terminal FLAG tag, secreted into COS1 culture supernatant (from UniProt P13612 34-641) (receptor)"
3,binds,B1
4,binds,B2
5,binds,B3
